Source: US20250011316A1 (Wake Forest University Health Sciences, priority 2022, published 2025)

Test: general procedure: peptide synthesis; Rink Amide resin (0.7 mmol/g)
Settings: whole synthesis; for final LC-MS purity: 215 nm; for final purity (method not given): ELSD
[1] = scale of the general procedure 5 gram resin, TFA salt converted to HCl salt
[2] = scale 0.25 mmol, TFA salt converted to HCl salt

Row | Substance | final LC-MS purity [1] | final purity (method not given) [1] | isolated mass (scale 0.25 mmol, HCl salt) | isolated yield [2] | other results
1 | H-Cha-D-Arg-Cha-D-Arg-Cha-D-Arg-NH2 HCl salt | – | – | – | – | final LC-MS purity (scale 2.8 mmol, HCl salt): 92.5% (215 nm); final purity (method not given) (scale 2.8 mmol, HCl salt): 99.7% (ELSD); isolated mass (scale 2.8 mmol, HCl salt): 890 mg; isolated yield (scale 2.8 mmol, HCl salt): 29%
2 | N3(CH2CH2O)9CH2CH2C(O)-Cha-D-Arg-Cha-D-Arg-Cha-D-Arg-NH2 HCl salt | 98.4% | 99.8% | 34 mg | 8.8% | –
3 | Tert-butyl (R)-4-(4-((3-((3-methoxy-3-oxoprop-1-en-2-yl)amino)-3-oxoprop-1-en-2-yl)carbamoyl)thiazol-2-yl)-2-methylpiperazine-1-carboxylate | – | – | 53 mg | – | final LC-MS purity (scale of the general procedure 5 gram resin, HCl salt): 83.7%; isolated yield (scale 0.25 mmol, HCl salt): 17%
4 | N3(CH2)5C(O)-Cha-D-Arg-Cha-D-Arg-Cha-D-Arg-NH2 | 78.0% | 99.6% | – | – | isolated mass (scale 2.5 mmol, HCl salt): 580 mg; isolated yield (scale 2.5 mmol, TFA salt converted to HCl salt): 20%
5 | N3(CH2CH2O)6CH2CH2C(O)-Cha-D-Arg-Cha-D-Arg-Cha-D-Arg-NH2 HCl salt | 97.8% | 99.6% | 39 mg | 11% | –
